Results deposited as PubChem BioAssay AID1259254 (NCATS, 2017)
Purpose: 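Finding genes that stop cells copying their DNA twice in one cycle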 (primary screen). Cell system: human HCT116 colorectal cancer cells. Reagent: single siRNA against human genes. Timing: 3 days. Measured: 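Imaged Hoechst DNA stain sorts each cell into a cycle phase by DNA amount; per plate, G2 fraction set to 0% for non-targeting and 100% for GMNN siRNA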. Scale: G2 robust z-score and G2 cells, % of GMNN control: higher = more G2 cells, more excess DNA replication. Active means: 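An siRNA counts as active if its G2 robust z-score lies at least 5 MADs above the screen median; here such calls match roughly 38% of GMNN control or more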.
In all, the deposit lists about 59,000 reagents; this is an unselected part. About 1,550 of all reagents (2.6%) were called active. 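G2 share is only a proxy for re-replication; each gene was hit by three separate siRNAs, and active genes were retested.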 A number with no mark means an inactive call. Reagents against one gene are numbered here. Not all columns of the deposit are shown. Not given: the amount of reagent.

What is on record for MGAT5B #1?
G2 robust z-score: -0.874; G2 cells, % of GMNN control: -3.18

With MGAT5B #2, what was measured?
G2 robust z-score: -0.195; G2 cells, % of GMNN control: 1.6

For MGAT5B #3, how do the results read?
G2 robust z-score: -0.94; G2 cells, % of GMNN control: -3.65

With VIRMA #1, how do the results read?
G2 robust z-score: 0.761; G2 cells, % of GMNN control: 8.32

With VIRMA #2, what was measured?
G2 robust z-score: -0.626; G2 cells, % of GMNN control: -1.44

What is on record for VIRMA #3?
G2 robust z-score: 2.08; G2 cells, % of GMNN control: 17.6

Sorted by “G2 robust z-score” (descending): 3 of the entries above.
VIRMA #3: G2 robust z-score = 2.08; G2 cells, % of GMNN control = 17.6
VIRMA #1: G2 robust z-score = 0.761; G2 cells, % of GMNN control = 8.32
VIRMA #2: G2 robust z-score = -0.626; G2 cells, % of GMNN control = -1.44

Next reagents follow.
Which result is listed for CLDN3 #1?
G2 robust z-score: -0.179; G2 cells, % of GMNN control: 1.71

What did the screen give for CLDN3 #2?
G2 robust z-score: -0.742; G2 cells, % of GMNN control: -2.25

With CLDN3 #3, what was measured?
G2 robust z-score: 0.0731; G2 cells, % of GMNN control: 3.48

For CHRAC1 #1, how do the results read?
G2 robust z-score: 0.15; G2 cells, % of GMNN control: 4.02

What is on record for CHRAC1 #2?
G2 robust z-score: 3.93; G2 cells, % of GMNN control: 30.6

What did the screen give for CHRAC1 #3?
G2 robust z-score: -0.575; G2 cells, % of GMNN control: -1.08

What is on record for PLEKHG5 #1?
G2 robust z-score: 0.0428; G2 cells, % of GMNN control: 3.27

For PLEKHG5 #2, how do the results read?
G2 robust z-score: -1.12; G2 cells, % of GMNN control: -4.89

Which result is listed for PLEKHG5 #3?
G2 robust z-score: 4.89; G2 cells, % of GMNN control: 37.4

Which result is listed for ZNF470 #1?
G2 robust z-score: 2.2; G2 cells, % of GMNN control: 18.4

For ZNF470 #2, what does the deposit list?
G2 robust z-score: 2.81; G2 cells, % of GMNN control: 22.8

What is on record for ZNF470 #3?
G2 robust z-score: -0.52; G2 cells, % of GMNN control: -0.689
